Test results reported in PubChem BioAssay AID270 (DTP/NCI, 2004).
The list is a part of this screen's results and no random one: it is rich in T/C values a quarter to a half above the control, in often repeated tests (any T/C) and in doses without a T/C. Other doses and runs of a compound stand elsewhere. T/C is the treated group as % of the vehicle group. Schedule codes are those of the source, read here as Q, the interval in days (D) or hours (H), X, the number of doses. Some T/C values are followed by the survivors on the day toxicity was checked, most often the fifth; where none is given, no animal had died by that day. Some doses have a count of surviving animals in place of a T/C: the source holds a T/C of zero for them, seemingly a mark for toxic or unscored doses. Some doses without a T/C left all or most animals alive at the check, yet need not have been tolerated: survival well below the control is almost never listed, so the zero probably covers shortened survival too. Survivors were counted at the toxicity check, usually on the fifth day, unless a day is given; later deaths do not show. Some entries were tested several times; the values are given in rising order. Where survival is the endpoint, the PubChem record calls one and a half times the control and up active, and a quarter to a half above the control has no call in these data; cut-offs in other NCI protocols can differ.

System: BDF1 mice, s.c. Lewis lung carcinoma, T/C %
Test: NCI In Vivo Anticancer Drug Screen. Data for tumor model Lewis Lung Carcinoma (subcutaneous) in B6D2F1 (BDF1) mice
Outline: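 Transplanted tumors grown in mice; compound vs vehicle dosing; endpoint survival or tumor size; ratio T/C.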

[1] = T/C endpoint: median survival time, dose: 25.0 mg/kg/injection, schedule: Q01DX001 (ip), vehicle: saline, higher T/C = longer survival

N[C@@H](Cc1ccc(N(CCCl)CCCl)cc1)C(=O)O
T/C (T/C endpoint: median survival time, dose: 0.16 mg/kg/injection, schedule: Q01DX009 (ip), vehicle: saline, higher T/C = longer survival): 130 % of control
T/C (T/C endpoint: median survival time, dose: 0.62 mg/kg/injection, schedule: Q01DX009 (ip), vehicle: saline, higher T/C = longer survival): 125 % of control
T/C (T/C endpoint: median survival time, dose: 1.0 mg/kg/injection, schedule: Q01DX009 (ip), vehicle: saline, higher T/C = longer survival): 140 % of control
T/C (T/C endpoint: median survival time, dose: 1.0 mg/kg/injection, schedule: Q04DX003 (ip), vehicle: saline, higher T/C = longer survival): 125 % of control
survivor count (T/C endpoint: median survival time, dose: 1.25 mg/kg/injection, schedule: Q01DX001 (ip), vehicle: water, higher T/C = longer survival): 10 of 10
T/C (T/C endpoint: median survival time, dose: 2.0 mg/kg/injection, schedule: Q04DX003 (ip), vehicle: saline, higher T/C = longer survival): 137 % of control
T/C (T/C endpoint: median survival time, dose: 3.24 mg/kg/injection, schedule: Q01DX001 (ip), vehicle: saline, evaluated on day 6, higher T/C = longer survival): 83, 108, 120 % of control
T/C (T/C endpoint: median survival time, dose: 3.24 mg/kg/injection, schedule: Q01DX001 (ip), vehicle: saline, evaluated on day 50, higher T/C = longer survival): 77 % of control
T/C (T/C endpoint: median survival time, dose: 3.24 mg/kg/injection, schedule: Q01DX001 (ip), vehicle: saline, evaluated on day 100, higher T/C = longer survival): 111 % of control
survivor count (T/C endpoint: median survival time, dose: 4.0 mg/kg/injection, schedule: Q01DX009 (ip), vehicle: saline with Tween-80, higher T/C = longer survival): 10 of 10
survivor count (T/C endpoint: median survival time, dose: 5.0 mg/kg/injection, schedule: Q01DX001 (ip), vehicle: saline, higher T/C = longer survival): 10 of 10
T/C (T/C endpoint: median survival time, dose: 5.4 mg/kg/injection, schedule: Q01DX001 (ip), vehicle: saline, evaluated on day 6, higher T/C = longer survival): 104, 109, 120 % of control
T/C (T/C endpoint: median survival time, dose: 5.4 mg/kg/injection, schedule: Q01DX001 (ip), vehicle: saline, evaluated on day 50, higher T/C = longer survival): 102 % of control
T/C (T/C endpoint: median survival time, dose: 5.4 mg/kg/injection, schedule: Q01DX001 (ip), vehicle: saline, evaluated on day 100, higher T/C = longer survival): 111 % of control
survivor count (T/C endpoint: median survival time, dose: 6.0 mg/kg/injection, schedule: Q01DX009 (ip), vehicle: saline, higher T/C = longer survival): 10 of 10
survivor count (T/C endpoint: median survival time, dose: 8.0 mg/kg/injection, schedule: Q01DX009 (ip), vehicle: Klucel (hydroxypropylcellulose) (HPC), higher T/C = longer survival): 10 of 10
survivor count (T/C endpoint: median survival time, dose: 8.0 mg/kg/injection, schedule: Q01DX009 (ip), vehicle: saline with Tween-80, higher T/C = longer survival): 10 of 10
survivor count (T/C endpoint: median survival time, dose: 8.0 mg/kg/injection, schedule: Q01DX009 (ip), vehicle: saline, higher T/C = longer survival): 10 of 10
T/C (T/C endpoint: median survival time, dose: 9.0 mg/kg/injection, schedule: Q01DX001 (ip), vehicle: saline, evaluated on day 6, higher T/C = longer survival): 90, 112, 138 % of control
T/C (T/C endpoint: median survival time, dose: 9.0 mg/kg/injection, schedule: Q01DX001 (ip), vehicle: saline, evaluated on day 50, higher T/C = longer survival): 88 % of control [9 of 10 alive on day 50]
T/C (T/C endpoint: median survival time, dose: 9.0 mg/kg/injection, schedule: Q01DX001 (ip), vehicle: saline, evaluated on day 100, higher T/C = longer survival): 136 % of control
T/C (T/C endpoint: median survival time, dose: 15.0 mg/kg/injection, schedule: Q01DX001 (ip), vehicle: saline, evaluated on day 6, higher T/C = longer survival): 94, 115, 123 % of control
T/C (T/C endpoint: median survival time, dose: 15.0 mg/kg/injection, schedule: Q01DX001 (ip), vehicle: saline, evaluated on day 50, higher T/C = longer survival): 113 % of control
T/C (T/C endpoint: median survival time, dose: 15.0 mg/kg/injection, schedule: Q01DX001 (ip), vehicle: saline, evaluated on day 100, higher T/C = longer survival): 116 % of control
survivor count (T/C endpoint: median survival time, dose: 16.0 mg/kg/injection, schedule: Q01DX001 (ip), vehicle: saline, higher T/C = longer survival): 8 of 10
survivor count (T/C endpoint: median survival time, dose: 16.0 mg/kg/injection, schedule: Q04DX003 (ip), vehicle: saline, higher T/C = longer survival): 10 of 10
survivor count (T/C endpoint: median survival time, dose: 20.0 mg/kg/injection, schedule: Q01DX001 (ip), vehicle: saline, higher T/C = longer survival): 7 of 10
survivor count (T/C endpoint: median survival time, dose: 20.0 mg/kg/injection, schedule: Q01DX001 (ip), vehicle: water, higher T/C = longer survival): 7 of 10
T/C [1]: 26 [8 of 9 alive], 30, 37 % of control
survivor count [1]: 2 of 10 on day 50 and 2 of 8 on day 100
survivor count (T/C endpoint: median survival time, dose: 30.0 mg/kg/injection, schedule: Q01DX001 (ip), vehicle: water, higher T/C = longer survival): 6 of 10
survivor count (T/C endpoint: median survival time, dose: 32.0 mg/kg/injection, schedule: Q01DX001 (ip), vehicle: saline, higher T/C = longer survival): 4 of 10
survivor count (T/C endpoint: median tumor weight (est.), dose: 19.0 mg/kg/injection, schedule: Q01DX001 (ip), vehicle: carboxymethylcellulose (CMC), higher T/C = larger tumour): 2 of 10 on day 19

CC1(C)C(CC(=O)O)CC1C(=O)O (centres undefined)
T/C (T/C endpoint: mean tumor weight, dose: 111.0 mg/kg/injection, schedule: Q01DX011 (ip), vehicle: other, evaluated on day 12, higher T/C = larger tumour): 126 % of control
survivor count (T/C endpoint: mean tumor weight, dose: 250.0 mg/kg/injection, schedule: Q01DX011 (ip), vehicle: other, higher T/C = larger tumour): 1 of 6
survivor count (T/C endpoint: mean tumor weight, dose: 375.0 mg/kg/injection, schedule: Q01DX011 (ip), vehicle: other, higher T/C = larger tumour): 0 of 6

O=C(Nc1ccc(C(=O)O)cc1)Oc1ccc(N(CCCl)CCCl)cc1
survivor count (T/C endpoint: median survival time, dose: 50.0 mg/kg/injection, schedule: Q01DX009 (ip), vehicle: Klucel (hydroxypropylcellulose) (HPC), higher T/C = longer survival): 10 of 10

O=C1OC(C(O)CO)C(O)=C1O (centres undefined)
T/C (T/C endpoint: median survival time, dose: 10.0 mg/kg/injection, schedule: Q02DX009 (ip), vehicle: saline, higher T/C = longer survival): 133 % of control
T/C (T/C endpoint: median survival time, dose: 100.0 mg/kg/injection, schedule: Q02DX009 (ip), vehicle: saline, higher T/C = longer survival): 128 % of control

CCC1=C(c2cc(Cl)c3ccccc3c2OCC(=O)O)OC(CC)(C(=O)c2cc(Cl)c3ccccc3c2OCC(=O)O)CC1 (centres undefined)
T/C (T/C endpoint: mean tumor weight, dose: 5.3 mg/kg/injection, schedule: Q01DX011 (ip), vehicle: carboxymethylcellulose (CMC), evaluated on day 12, higher T/C = larger tumour): 125 % of control [5 of 6 alive]
survivor count (T/C endpoint: mean tumor weight, dose: 8.0 mg/kg/injection, schedule: Q01DX011 (ip), vehicle: carboxymethylcellulose (CMC), higher T/C = larger tumour): 0 of 6 and 0 of 7
survivor count (T/C endpoint: mean tumor weight, dose: 13.0 mg/kg/injection, schedule: Q01DX011 (ip), vehicle: carboxymethylcellulose (CMC), higher T/C = larger tumour): 0 of 7
survivor count (T/C endpoint: mean tumor weight, dose: 20.0 mg/kg/injection, schedule: Q01DX011 (ip), vehicle: carboxymethylcellulose (CMC), higher T/C = larger tumour): 0 of 7
survivor count (T/C endpoint: mean tumor weight, dose: 30.0 mg/kg/injection, schedule: Q01DX011 (ip), vehicle: carboxymethylcellulose (CMC), higher T/C = larger tumour): 0 of 7
survivor count (T/C endpoint: mean tumor weight, dose: 60.0 mg/kg/injection, schedule: Q01DX011 (ip), vehicle: carboxymethylcellulose (CMC), higher T/C = larger tumour): 0 of 7
survivor count (T/C endpoint: mean tumor weight, dose: 120.0 mg/kg/injection, schedule: Q01DX011 (ip), vehicle: carboxymethylcellulose (CMC), higher T/C = larger tumour): 0 of 7
survivor count (T/C endpoint: mean tumor weight, dose: 240.0 mg/kg/injection, schedule: Q01DX011 (ip), vehicle: carboxymethylcellulose (CMC), higher T/C = larger tumour): 0 of 7

O=CNCCO
T/C (T/C endpoint: mean tumor weight, dose: 500.0 mg/kg/injection, schedule: Q01DX011 (ip), vehicle: saline, evaluated on day 12, higher T/C = larger tumour): 139 % of control
survivor count (T/C endpoint: mean tumor weight, dose: 1000.0 mg/kg/injection, schedule: Q01DX011 (ip), vehicle: saline, higher T/C = larger tumour): 0 of 6

Cc1ccc(S(=O)(=O)[O][Pb]([CH3])([CH3])[CH3])cc1
T/C (T/C endpoint: median survival time, dose: 0.37 mg/kg/injection, schedule: Q01DX009 (ip), vehicle: saline, higher T/C = longer survival): 141 % of control
T/C (T/C endpoint: median survival time, dose: 0.75 mg/kg/injection, schedule: Q01DX009 (ip), vehicle: saline, higher T/C = longer survival): 129 % of control

CC(=O)O[C@]1(C(C)=O)CC[C@H]2[C@@H]3C[C@H](C)C4=CC(=O)CC[C@]4(C)[C@H]3CC[C@@]21C
survivor count (T/C endpoint: median survival time, dose: 800.0 mg/kg/injection, schedule: Q01DX009 (ip), vehicle: Klucel (hydroxypropylcellulose) (HPC), higher T/C = longer survival): 7 of 10

N#CC(Cc1ccccc1)C(=O)O (centres undefined)
survivor count (T/C endpoint: mean tumor weight, dose: 1000.0 mg/kg/injection, schedule: Q01DX011 (ip), vehicle: other, higher T/C = larger tumour): 0 of 6

CCCC(=O)NC1=C(N2CC2)C(=O)C(NC(=O)CCC)=C(N2CC2)C1=O
survivor count (T/C endpoint: mean tumor weight, dose: 6.0 mg/kg/injection, schedule: Q01DX011 (ip), vehicle: other, higher T/C = larger tumour): 0 of 6

CC12CCC(C1)C(C)(C)C2NCCCN1C(=O)c2ccc3c4c(ccc(c24)C1=O)C(=O)N(CCCNC1C2(C)CCC(C2)C1(C)C)C3=O (centres undefined)
T/C (T/C endpoint: median survival time, dose: 6.25 mg/kg/injection, schedule: Q01DX009 (ip), vehicle: Klucel (hydroxypropylcellulose) (HPC), higher T/C = longer survival): 132 % of control
T/C (T/C endpoint: median survival time, dose: 12.5 mg/kg/injection, schedule: Q01DX009 (ip), vehicle: Klucel (hydroxypropylcellulose) (HPC), higher T/C = longer survival): 138 % of control
T/C (T/C endpoint: median survival time, dose: 25.0 mg/kg/injection, schedule: Q01DX009 (ip), vehicle: Klucel (hydroxypropylcellulose) (HPC), higher T/C = longer survival): 127 % of control [9 of 10 alive]

NC(=S)N/N=C\c1nccc2c(N)cccc12
T/C (T/C endpoint: median survival time, dose: 50.0 mg/kg/injection, schedule: Q01DX009 (ip), vehicle: saline with Tween-80, higher T/C = longer survival): 129 % of control

CC1CCCCN1 (centres undefined)
survivor count (T/C endpoint: mean tumor weight, dose: 100.0 mg/kg/injection, schedule: Q01DX011 (ip), vehicle: saline, higher T/C = larger tumour): 0 of 6

CC(C)(c1ccccc1)c1ccc(O)cc1
survivor count (T/C endpoint: mean tumor weight, dose: 100.0 mg/kg/injection, schedule: Q01DX011 (ip), vehicle: carboxymethylcellulose (CMC), higher T/C = larger tumour): 2 of 6
survivor count (T/C endpoint: mean tumor weight, dose: 150.0 mg/kg/injection, schedule: Q01DX011 (ip), vehicle: carboxymethylcellulose (CMC), higher T/C = larger tumour): 0 of 6

CC(C)=CC1C(C(=O)OCc2ccc(C)cc2C)C1(C)C (centres undefined)
survivor count (T/C endpoint: median survival time, dose: 100.0 mg/kg/injection, schedule: Q01DX009 (ip), vehicle: saline with Tween-80, higher T/C = longer survival): 9 of 10
survivor count (T/C endpoint: median survival time, dose: 200.0 mg/kg/injection, schedule: Q01DX009 (ip), vehicle: saline with Tween-80, higher T/C = longer survival): 9 of 10
survivor count (T/C endpoint: median survival time, dose: 400.0 mg/kg/injection, schedule: Q01DX009 (ip), vehicle: saline with Tween-80, higher T/C = longer survival): 9 of 10
